The record followed here is patent US11957716B2 (Immatics Biotechnologies GmbH, priority 2021, dated 2024).

This data set has as its system HLA molecules from shock-frozen tissue samples. Briefly: Identification and relative quantitation of tumor associated peptides presented on the cell surface by LC-MS (XPRESIDENT). Also on record: species or system human. As to conditions: all indications on which the peptide was identified at least once, independent of the HLA typing of the sample or the antibody used.

With “73 (NQKGLISL; listed as Homo sapiens) [compound 73]”, the “Peptide presentation on cancer types” value is recorded as “CLL, GBC, MEL, NHL, NSCLC, RCC”.

“74 (TLNVLITL; listed as Homo sapiens) [compound 74]”: the “Peptide presentation on cancer types” value is on record as “CRC, GC, MEL, NSCLC, OC, RCC”.

For the substance “75 (TTAAVYILK; listed as Homo sapiens) [compound 75]”, the “Peptide presentation on cancer types” value was “NHL, OC”.

For the substance “76 (VQSGVPSRF; listed as Homo sapiens) [compound 76]”, the “Peptide presentation on cancer types” value is given as “GBC, GC, NSCLC”.

For the substance “77 (YPDVPIGQL; listed as Homo sapiens) [compound 77]”, the “Peptide presentation on cancer types” value was “CRC”.

For “78 (TPSHSTPSF; listed as Homo sapiens) [compound 78]”, the “Peptide presentation on cancer types” value is recorded as “GC, PACA”.

Consider “79 (SLFRLSISF; listed as Homo sapiens) [compound 79]”, for which the “Peptide presentation on cancer types” value is given as “BRCA, NSCLC, PACA, RCC, UBC”.

Turning to “80 (IFDLSDPRF; listed as Homo sapiens) [compound 80]”, the “Peptide presentation on cancer types” value was “GBC, GC, HNSCC, MEL, UBC, UEC”.

As for “81 (KLIAGLIFLK; listed as Homo sapiens) [compound 81]”, the “Peptide presentation on cancer types” value is listed as “AML, NHL, OC, RCC, UBC, UEC”.

As to “82 (VLQSLQHEL; listed as Homo sapiens) [compound 82]”, the “Peptide presentation on cancer types” value is on record as “RCC”.

For the substance “83 (EAAPNIMHY; listed as Homo sapiens) [compound 83]”, the “Peptide presentation on cancer types” value was “PRCA”.

Take “84 (KEFAFLEHSL; listed as Homo sapiens) [compound 84]”: the “Peptide presentation on cancer types” value is recorded as “CRC, GC, HNSCC, NSCLC, OC, OSCAR, UBC, UEC”.

Turning to “85 (LPHPVNSGL; listed as Homo sapiens) [compound 85]”, the “Peptide presentation on cancer types” value is recorded as “CCC, NSCLC, NSCLC, NSCLC, UBC”.

Regarding “86 (VANDRLSFL; listed as Homo sapiens) [compound 86]”, the “Peptide presentation on cancer types” value is listed as “NSCLC, PRCA”.

On to “87 (LHLNPGLSF; listed as Homo sapiens) [compound 87]”, for which the “Peptide presentation on cancer types” value is reported as “BRCA, GC, MEL, NHL, PACA”.

“88 (KVGAVVHLK; listed as Homo sapiens) [compound 88]”: the “Peptide presentation on cancer types” value is given as “BRCA, HCC, NSCLC, OC, OSCAR, RCC, UBC, UEC”.

As to “89 (SPSSPLLLLA; listed as Homo sapiens) [compound 89]”, the “Peptide presentation on cancer types” value is given as “BRCA, GC, OC, SCLC, UBC”.

As for “90 (LALLGAPPPK; listed as Homo sapiens) [compound 90]”, the “Peptide presentation on cancer types” value is given as “AML, CCC, CRC, GBC, GC, HCC, HNSCC, NSCLC, OC, OSCAR, PACA, PRCA, RCC, SCLC, UEC”.

Take “91 (RIVTYIVAK; listed as Homo sapiens) [compound 91]”: the “Peptide presentation on cancer types” value was “AML, BRCA, CCC, HCC, MEL, NHL, NSCLC, OC, OSCAR, PACA, PRCA, UBC, UEC”.

Consider “92 (LNFSDVFLY; listed as Homo sapiens) [compound 92]”, for which the “Peptide presentation on cancer types” value was “GC, HNSCC, MEL, NHL, NSCLC, PRCA”.

In the case of “93 (SPIGLSLIL; listed as Homo sapiens) [compound 93]”, the “Peptide presentation on cancer types” value was “CCC, HNSCC, NSCLC, OSCAR, SCLC, UBC”.

Take “94 (AVFLGNPSNQK; listed as Homo sapiens) [compound 94]”: the “Peptide presentation on cancer types” value is reported as “CCC, GC, NHL, NSCLC, OSCAR”.

As to “95 (YAFRNQTL; listed as Homo sapiens) [compound 95]”, the “Peptide presentation on cancer types” value is recorded as “PRCA, SCLC”.

Consider “96 (HPRESLNMLVAF; listed as Homo sapiens) [compound 96]”, for which the “Peptide presentation on cancer types” value was “CCC, GBC, MEL, NSCLC, PACA, UBC”.

Turning to “97 (ALIVLHLSL; listed as Homo sapiens) [compound 97]”, the “Peptide presentation on cancer types” value is on record as “AML, CRC, MEL, NHL, OSCAR”.

With “98 (FSEIFQDFL; listed as Homo sapiens) [compound 98]”, the “Peptide presentation on cancer types” value is “AML, BRCA, GC, HNSCC, NHL, RCC, UEC”.

Turning to “99 (RADEEQASF; listed as Homo sapiens) [compound 99]”, the “Peptide presentation on cancer types” value is given as “CRC, NSCLC, OSCAR, PACA, UBC, UEC”.

With “100 (SPAPSLARFLSL; listed as Homo sapiens) [compound 100]”, the “Peptide presentation on cancer types” value is given as “BRCA, HNSCC, NSCLC, MEL”.

On to “101 (ATNSFLLIK; listed as Homo sapiens) [compound 101]”, for which the “Peptide presentation on cancer types” value is “GC, NSCLC, SCLC, PACA, PRCA”.

For “102 (FLLLEKGGEL; listed as Homo sapiens) [compound 102]”, the “Peptide presentation on cancer types” value was “BRCA, CRC, HCC, HNSCC, NSCLC, PACA”.

Consider “103 (RPWLSSPTGL; listed as Homo sapiens) [compound 103]”, for which the “Peptide presentation on cancer types” value is listed as “GBC, GC, HNSCC, NHL, NSCLC, OC, PACA, RCC”.

On to “104 (GSLQTLPPK; listed as Homo sapiens) [compound 104]”, for which the “Peptide presentation on cancer types” value is “GBC, OSCAR, UBC”.

For the substance “105 (LVFESVVAA; listed as Homo sapiens) [compound 105]”, the “Peptide presentation on cancer types” value was “GBC, HNSCC, NHL, NSCLC, RCC, UBC”.

In the case of “106 (GLLDAFLRL; listed as Homo sapiens) [compound 106]”, the “Peptide presentation on cancer types” value is “HCC”.

Take “107 (SVISVLTTPK; listed as Homo sapiens) [compound 107]”: the “Peptide presentation on cancer types” value is “GBC, NSCLC, OSCAR, UBC, UEC”.

Take “108 (SLQESLPNA; listed as Homo sapiens) [compound 108]”: the “Peptide presentation on cancer types” value is recorded as “AML”.

As for “109 (MPKLFLTAC; listed as Homo sapiens) [compound 109]”, the “Peptide presentation on cancer types” value is reported as “AML, CCC, CLL, CRC, GC, HCC, NSCLC, RCC”.

For “110 (APSLARFLSL; listed as Homo sapiens) [compound 110]”, the “Peptide presentation on cancer types” value is “BRCA, HNSCC, MEL, NSCLC, OC, OSCAR, RCC, SCLC”.

Consider “111 (RPIWDVRSA; listed as Homo sapiens) [compound 111]”, for which the “Peptide presentation on cancer types” value was “HNSCC, NSCLC, SCLC”.

In the case of “112 (ETYGTFVLR; listed as Homo sapiens) [compound 112]”, the “Peptide presentation on cancer types” value is on record as “BRCA, CCC, CRC, GBC, HCC, HNSCC, NSCLC, OC, OSCAR, SCLC, RCC, UBC”.

Regarding “113 (ALGPMAFRV; listed as Homo sapiens) [compound 113]”, the “Peptide presentation on cancer types” value is on record as “BRCA, CRC, NSCLC, OC, OSCAR, PACA, RCC”.

With “114 (VPHHLLSSV; listed as Homo sapiens) [compound 114]”, the “Peptide presentation on cancer types” value is reported as “GBC, GC, PACA, RCC”.

For “115 (LWEEKPVCL; listed as Homo sapiens) [compound 115]”, the “Peptide presentation on cancer types” value was “CCC, CRC, GBC, HCC, NSCLC, PACA, PRCA, UBC, UEC”.

For the substance “116 (IYLTKSNLVNM; listed as Homo sapiens) [compound 116]”, the “Peptide presentation on cancer types” value is on record as “HNSCC, NHL, NSCLC, OSCAR”.

Regarding “117 (GEAAAARPV; listed as Homo sapiens) [compound 117]”, the “Peptide presentation on cancer types” value is recorded as “HCC, MEL, NSCLC”.

“118 (RLLRLIPIL; listed as Homo sapiens) [compound 118]”: the “Peptide presentation on cancer types” value is on record as “GBC, HNSCC, MEL, NSCLC, OC, PACA, RCC”.

In the case of “119 (VLHGLLFTL; listed as Homo sapiens) [compound 119]”, the “Peptide presentation on cancer types” value is recorded as “AML, NHL, NSCLC, RCC”.

Consider “120 (APGPRSQGL; listed as Homo sapiens) [compound 120]”, for which the “Peptide presentation on cancer types” value is given as “BRCA, CRC, GC, PRCA, UBC”.

Take “121 (ILVTAWKGV; listed as Homo sapiens) [compound 121]”: the “Peptide presentation on cancer types” value is “GBC, GC, HCC, NHL, NSCLC, OSCAR, RCC”.

Turning to “122 (FTQKINSTW; listed as Homo sapiens) [compound 122]”, the “Peptide presentation on cancer types” value is “BRCA, CCC, CLL, CRC, GBC, GC, HNSCC, MEL, NSCLC, PRCA, RCC, SCLC, UBC”.

As to “123 (TYLESSVRI; listed as Homo sapiens) [compound 123]”, the “Peptide presentation on cancer types” value is given as “HCC”.

Take “124 (SPSSNSREL; listed as Homo sapiens) [compound 124]”: the “Peptide presentation on cancer types” value is listed as “AML, CRC, GBC, GC, HNSCC, MEL, OC, UBC”.

Regarding “125 (ALAQGANLK; listed as Homo sapiens) [compound 125]”, the “Peptide presentation on cancer types” value is reported as “GB, MEL, RCC”.

Regarding “126 (NPELLVILL; listed as Homo sapiens) [compound 126]”, the “Peptide presentation on cancer types” value is on record as “HNSCC, NSCLC, OSCAR, RCC”.

Regarding “127 (TVATQVATSK; listed as Homo sapiens) [compound 127]”, the “Peptide presentation on cancer types” value is “BRCA, HNSCC, NSCLC, OC, OSCAR, UBC”.

With “128 (MTFVPLLAR; listed as Homo sapiens) [compound 128]”, the “Peptide presentation on cancer types” value is given as “CRC, GBC, GC, HCC, NHL, MEL, NSCLC, OC, OSCAR, PACA, UBC, UEC”.

On to “129 (IPISIFKMA; listed as Homo sapiens) [compound 129]”, for which the “Peptide presentation on cancer types” value was “CCC, HCC, NHL, PACA, RCC, SCLC, UBC”.

As for “130 (ITPDSIPSV; listed as Homo sapiens) [compound 130]”, the “Peptide presentation on cancer types” value is “AML, GBC, NHL, OC, SCLC”.

For “131 (TILAKQNVL; listed as Homo sapiens) [compound 131]”, the “Peptide presentation on cancer types” value is recorded as “AML, HCC, OC, RCC”.

Turning to “132 (LYLETRSEF; listed as Homo sapiens) [compound 132]”, the “Peptide presentation on cancer types” value is listed as “BRCA, GBC, GC, HCC, MEL, NSCLC, OC, OSCAR, PACA, PRCA, RCC”.

“133 (KFPPSASEF; listed as Homo sapiens) [compound 133]”: the “Peptide presentation on cancer types” value is “CRC, GC, NSCLC, PRCA, UBC”.

As to “134 (MPCTTILRI; listed as Homo sapiens) [compound 134]”, the “Peptide presentation on cancer types” value is given as “AML, CLL, CRC, GC, HCC, HNSCC, MEL, NHL, NSCLC, OSCAR, RCC, PACA, PRCA, UBC, UEC”.

Turning to “135 (SADTAELLL; listed as Homo sapiens) [compound 135]”, the “Peptide presentation on cancer types” value is reported as “CCC, HCC”.

On to “136 (YSSEIWDLY; listed as Homo sapiens) [compound 136]”, for which the “Peptide presentation on cancer types” value was “BRCA, GBC, HCC, MEL, UEC”.

For “137 (MPIQVLKGL; listed as Homo sapiens) [compound 137]”, the “Peptide presentation on cancer types” value is “BRCA, GC, NHL, RCC, PRCA”.
